Data as given in patent US8268856B2, “Method to use compositions having antidepressant anxiolytic and other neurological activity and compositions of matter” (priority 2007, dated 2012).
At least one compound was matched to its structure with a doubt left.

How the values were obtained:
male Swiss Webster mice [1] = assay: Locomotor activity test, Swiss Webster mice; type: in vivo, mouse; conditions: IP, photobeam interruptions, versus vehicle
Protocol: (§1) Locomotor Activity and the FST. To evaluate the isolated compounds for antidepressant-like activity, male Swiss Webster mice (Harlan, Indianapolis, Ind.) (25-30 g weight) were used. Animals were housed in groups of five with a 12 h light/12 h dark cycle. Food and water were provided at libitum. All procedures involving animals were performed as approved by the Institutional Animal Care and Use Committee of the University of Mississippi. Animals were randomly divided into groups (n=6-10/group). Each group was injected IP with either the compound (1-20 mg/kg), desipramine (20 mg/kg), or vehicle (saline, 10% ethanol or 10% ethanol/1% DMSO). Following injection, locomotor activity was monitored using an automated activity monitoring system (San Diego Instruments, San Diego, Calif.). Each mouse was placed in a Plexiglas enclosure and locomotor activity was recorded as the number of photobeam interruptions for 30 min after drug injection. The activity for the last ten min was quantified and analyzed. […] The mice were recorded with a video camera (positioned at about 30 cm above the cylinder) for a total of 6 min. […] The mean immobility time was then calculated. […]
Effect of select compounds on locomotor activity. […] Accordingly, the effect of tested compounds on locomotor activity was evaluated using an automated activity monitoring system.

Male DBA2/J mice = assay: Mouse tail suspension test (TST); type: in vivo; conditions: i.p., versus vehicle
Description: Based on the data collected from the FST, the antidepressant action of aaptamine. 5,6-dibromo-N,N-dimethyltryptamine, and 3-bromotyramine was examined in the mouse tail suspension test (TST), another model highly predictive of antidepressant action. Similar to the FST, this test depends on the depressive behavior elicited by the animals when placed in an inescapable situation, in this case suspending the animal by its tail. Male DBA2/J mice were used for this test.
In fact, higher doses seem to increase immobility time (FIG. 9C). […] However, such effect was only evident at the 40 mg/kg dose (compared to 10 and 20 mg/kg dose in the FST) (FIG. 9D).

serotonin receptors = assay: Affinity to serotonin receptors (receptor binding panel); design: species or system human or rodent
Protocol: Evaluation of binding affinity of isolated compounds to serotonin receptors. In vitro testing of isolated compounds was completed using a small panel of receptor binding assays and then validated in a comprehensive panel by the NIMH Psychoactive Drug Screening Program. Pharmacological and functional screening of isolated molecules was performed on cloned human or rodent CNS receptors, channels, and transporters. Hu, J-F., et al. New Antiinfective and Human 5-HT2 Receptor Binding Natural and Semisynthetic Compounds from the Jamaican Sponge Smenospongia aurea. 65 Jour. of Nat. Prod. 476-80 (2002).
Porsolt R D, et al. Behavioral Despair In Mice: A Primary Screening Test for Antidepressants, 229 Arch. Int. Pharmacodyn. 327-36 (1977). […] In order to control for false positives, as has been previously observed with psychostimulants, Cryan, J., et al. Assessing Substrates Underlying The Behavioral Effects Of Antidepressants Using The Modified Rat Forced Swimming Test. 29 Neurosci Biobehav Rev. 547-69 (2005) locomotor activity of the animals was monitored using an automated photobeam activity monitoring system. Lucki. I. The Forced Swimming Test As A Model For Core And Component Behavioral Effects Of Antidepressant Drugs. 8 Behav. Pharmacol. 522-32 (1997).

male Swiss Webster mice [2] = assay: Porsolt forced swim test (FST); type: in vivo, mouse; conditions: IP, immobility during last 4 min of 6 min swim, versus vehicle
Protocol: as §1
Porsolt R D, et al. Behavioral Despair In Mice: A Primary Screening Test for Antidepressants, 229 Arch. […] 547-69 (2005) locomotor activity of the animals was monitored using an automated photobeam activity monitoring system. […]

SMILES	effect on locomotor activity (male Swiss Webster mice [1])	antidepressant-like action / immobility in tail suspension test (Male DBA2/J mice)	affinities to serotonin receptors (serotonin receptors)	antidepressant-like activity / effect on immobility time in FST (male Swiss Webster mice [2])
COc1cc2ccnc3c2c(c1OC)NC=C3 [aaptamine]	no significant difference in locomotor activity	failed to significantly reduce immobility	moderate affinities	
CN(C)CCCC1(c2ccc(F)cc2)OCc2cc(C#N)ccc21 (stereo not drawn) [citalopram, reference compound]	no significant difference in locomotor activity	significant reduction in immobility		
C=C1CCC[C@H]2[C@](C)(CC3=C(O)C(=O)C=C(OC)C3=O)[C@@H](C)CC[C@]12C [ilimaquinone]				did not show any significant antidepressant-like activity
